Measurements reported in patent EP0620008B1, “Use of vip, analogues and fragments thereof for the treatment of neurodegenerative diseases” (YEDA RESEARCH AND DEVELOPMENT COMPANY, LTD., priority 1993, dated 1999).
Not every detail of the peptide structures is certain; ends, links or a residue may be inferred. Where a SMILES comes first, the peptide text is derived from it. The star is where a group is joined. Stearoyl = CCCCCCCCCCCCCCCCCC(=O)*

Key:
[1] = test system: animal models of Alzheimer; test: swim maze learning and memory test, AF64A animal model of Alzheimer, I.C.V. drug administration; format: in vivo; settings: AF64A-injected rats; 100 ng I.C.V. daily; Fig. 8
[2] = test system: animal models of Alzheimer; test: swim maze learning and memory test, AF64A animal model of Alzheimer, nasal drug administration; format: in vivo; settings: AF64A-treated rats; daily nasal administration (St-Nle^17-VIP 70µg/40µl, peptide 6 50µg/40µl); Fig. 9
[3] = test system: neurons treated with fragment 25-35 of β-Amyloid peptide; test: survival of cerebral cortex neurons treated with fragment 25-35 of β-amyloid peptide; format: cell-based, rat; settings: 25 µM β-amyloid peptide fragment 25-35; 5 days; Fig. 6
Experimental: β-amyloid peptide is known to be involved in Alzheimer's disease and is a toxic substance to neurons grown in culture (Pike et al., J. of Neurosci., 13(4), 1676-1687 (1993)). Neurons from rat cerebral cortex, prepared as described above were treated with 25 µM of β-amyloid peptide fragment comprising amino acids in positions 25 to 35 mentioned in the above publication. The β-amyloid peptide fragment was dissolved in water and preincubated at 37°C for 48 h in 10% CO2. St-Nle^17-VIP (10 µl/1 ml medium) was added to the culture plates at varying concentrations together with the β-amyloid peptide fragment. The St-Nle^17-VIP was initially dissolved in DMSO to give a concentration of 10^-3 M and all further dilutions were performed in saline. Cells were then incubated for 5 days, stained with antibodies against neuron specific enolase and living neurons were counted as described above.

[4] = test system: old animals; test: swim maze learning and memory test in old animals, nasal administration; format: in vivo; settings: male rats aged 18-20 months; daily nasal administration 7-19 days; Fig. 10
[5] = test system: VIP receptor; test: affinity study: displacement of 125I-VIP on intact cerebral cortical astrocytes; format: binding; settings: for affinity relative to St-VIP: Fig. 7

Row | SMILES | learning and memory (latency of reaching the platform) [1] | learning and memory (latency of reaching the platform) [2] | most effective protective concentrations [3] | protection of neurons from the toxic effect of β-amyloid peptide fragment [3] | learning and memory (latency of reaching the platform) [4] | affinity to the high affinity receptor relative to VIP ([5]; high affinity receptor, VIP value from reference 19) | affinity relative to St-VIP ([5]; high concentration zone (low affinity zone)) | affinity relative to St-VIP ([5]; zone of low concentration (high affinity), 50 pM 125I-VIP, 4°C)
1 | CCCCCCCCCCCCCCCCCC(=O)N[C@@H](Cc1c[nH]cn1)C(=O)N[C@@H](CO)C(=O)N[C@@H](CC(=O)O)C(=O)N[C@@H](C)C(=O)N[C@H](C(=O)N[C@@H](Cc1ccccc1)C(=O)N[C@H](C(=O)N[C@@H](CC(=O)O)C(=O)N[C@@H](CC(N)=O)C(=O)N[C@@H](Cc1ccc(O)cc1)C(=O)N[C@H](C(=O)N[C@@H](CCCNC(=N)N)C(=O)N[C@@H](CC(C)C)C(=O)N[C@@H](CCCNC(=N)N)C(=O)N[C@@H](CCCCN)C(=O)N[C@@H](CCC(N)=O)C(=O)N[C@@H](CCCC)C(=O)N[C@@H](C)C(=O)N[C@H](C(=O)N[C@@H](CCCCN)C(=O)N[C@@H](CCCCN)C(=O)N[C@@H](Cc1ccc(O)cc1)C(=O)N[C@@H](CC(C)C)C(=O)N[C@@H](CC(N)=O)C(=O)N[C@@H](CO)C(=O)N[C@H](C(=O)N[C@@H](CC(C)C)C(=O)N[C@@H](CC(N)=O)C(N)=O)[C@@H](C)CC)C(C)C)[C@@H](C)O)[C@@H](C)O)C(C)C [St-Nle^17-VIP, Stearoyl norleucine^17-VIP] | recovery of the learning and memory abilities, essentially similar to that of control animals | control animals (□) show smaller improvement in the latency of reaching the platform | 10^-13 M | able to protect neurons from the toxic effect of β-amyloid peptide fragment at all concentrations tested | greater improvement in the latency of reaching the platform over time | about 100 fold | 10 fold | 10 fold
2 | CCCCCCCCCCCCCCCCCC(=O)N[C@@H](C)C(=O)N[C@H](C(=O)N[C@@H](CCCCN)C(=O)N[C@@H](CCCCN)C(=O)N[C@@H](Cc1ccc(O)cc1)C(=O)N[C@@H](CC(C)C)C(=O)N[C@@H](CC(N)=O)C(=O)N[C@@H](CO)C(=O)N[C@H](C(=O)N[C@@H](CC(C)C)C(=O)N[C@@H](CC(N)=O)C(N)=O)[C@@H](C)CC)C(C)C [peptide 6, St-A-V-K-K-Y-L-N-S-I-L-N] (Stearoyl-AVKKYLNSILN-NH2) | – | control animals (□) show smaller improvement in the latency of reaching the platform | – | – | – | – | – | –
